Results published in patent publication US10450311B2, “Pesticidally active heterocyclic derivatives with sulphur containing substituents” (Syngenta Participations AG, priority 2014, dated 2019).
Some entries share one result that the patent states for a list of compounds.

Assays:
Type in all cases: in vivo
[1] = test system: Diabrotica balteata (Corn Root Worm); test: Activity against Diabrotica balteata, sprayed maize sprouts; details: application rate of 200 ppm; larvae on maize sprouts; 4 days after infestation
Method: Example B2: Activity Against Diabrotica balteata (Corn Root Worm)
Maize sprouts, placed on an agar layer in 24-well microtiter plates were treated with aqueous test solutions prepared from 10′000 ppm DMSO stock solutions by spraying. After drying, the plates were infested with […] (6 to 10 per well). The samples were assessed for mortality 4 days after infestation.

[2] = test system: Euschistus heros (Neotropical Brown Stink Bug); test: Activity against Euschistus heros, sprayed soybean leaf; details: application rate of 200 ppm; N-2 nymphs on soybean leaf; 5 days after infestation
Method: Example B3: Activity Against Euschistus heros (Neotropical Brown Stink Bug)
Soybean leaf on agar in 24-well microtiter plates were sprayed with aqueous test solutions prepared from 10′000 ppm DMSO stock solutions. After drying the leaf were infested with N-2 nymphs. The samples were assessed for mortality 5 days after infestation.

[3] = test system: Myzus persicae (Green Peach Aphid); test: Activity against Myzus persicae, sprayed sunflower leaf discs; details: application rate of 200 ppm; aphid population of mixed ages on sunflower leaf discs; 6 days after infestation
Method: Example B5: Activity Against Myzus persicae (Green Peach Aphid)
(§1) Sunflower leaf discs were placed on agar in a 24-well microtiter plate and sprayed with aqueous test solutions prepared from 10′000 ppm DMSO stock solutions. After drying, the leaf discs were infested with an aphid population of mixed ages. The samples were assessed for mortality 6 days after infestation.

[4] = test system: Myzus persicae (Green Peach Aphid); test: Activity against Myzus persicae, roots of infested pea seedlings in test solution; details: test rate of 24 ppm, 6 days
Method: Example B6: Activity Against Myzus persicae (Green Peach Aphid)
Roots of pea seedlings infested with an aphid population of mixed ages were placed directly in the aqueous test solutions prepared from 10′000 DMSO stock solutions. The samples were assessed for mortality 6 days after placing seedlings in test solutions.

[5] = test system: Spodoptera littoralis (Egyptian Cotton Leaf Worm); test: Activity against Spodoptera littoralis, sprayed cotton leaf discs; details: application rate of 200 ppm; L1 larvae on cotton leaf discs; 3 days after infestation
Method: Example B9: Activity Against Spodoptera littoralis (Egyptian Cotton Leaf Worm)
Cotton leaf discs were placed on agar in 24-well microtiter plates and sprayed with aqueous test solutions prepared from 10′000 ppm DMSO stock solutions. After drying the leaf discs were infested with five L1 larvae. The samples were assessed for mortality, anti-feedant effect, and growth inhibition in comparison to untreated samples 3 days after infestation. Control of Spodoptera littoralis by a test sample is when at least one of mortality, anti-feedant effect, and growth inhibition is higher than the untreated sample.

[6] = test system: Spodoptera littoralis (Egyptian Cotton Leaf Worm); test: Activity against Spodoptera littoralis, compound in agar taken up by lettuce; details: test rate of 12.5 ppm, lettuce root uptake, 6 days after infestation
Text: Example B10: Activity Against Spodoptera littoralis (Egyptian Cotton Leaf Worm)
(§2) Test compounds were applied by pipette from 10′000 ppm DMSO stock solutions into 24-well plates and mixed with agar. Lettuce seeds were placed on the agar and the multi well plate was closed by another plate which contains also agar. After 7 days the roots have absorbed the compound and the lettuce has grown into the lid plate. The lettuce leafs were now cut off into the lid plate. Spodoptera eggs were pipetted through a plastic stencil on a humid gel blotting paper and the plate closed with it. The samples were assessed for mortality, anti-feedant effect and growth inhibition in comparison to untreated samples 6 days after infestation.

[7] = test system: Bemisia tabaci (Cotton White Fly); test: Activity against Bemisia tabaci, sprayed cotton leaf discs; details: application rate of 200 ppm; adult white flies on cotton leaf discs; 6 days after incubation
Method: Example B1: Activity Against Bemisia tabaci (Cotton White Fly)
Cotton leaf discs were placed on agar in 24-well microtiter plates and sprayed with aqueous test solutions prepared from 10′000 ppm DMSO stock solutions. After drying the leaf discs were infested with adult white flies. The samples were checked for mortality 6 days after incubation. […] A35, A36 and A47. A1. A2, A3, A8, A10, A14 and A12.

[8] = test system: Plutella xylostella (Diamond Back Moth); test: Activity against Plutella xylostella, treated artificial diet; details: application rate of 200 ppm; L2 larvae on artificial diet; 5 days after infestation
Method: Example B8: Activity Against Plutella xylostella (Diamond Back Moth)
24-well microtiter plates with artificial diet were treated with aqueous test solutions prepared from 10′000 ppm DMSO stock solutions by pipetting. After drying, the plates were infested with L2 larvae (10 to 15 per well). The samples were assessed for mortality and growth inhibition in comparison to untreated samples 5 days after infestation.

[9] = test system: Spodoptera littoralis (Egyptian Cotton Leaf Worm); test: Activity against Spodoptera littoralis, systemic activity; details: test rate of 12.5 ppm, in agar, lettuce root uptake, 6 days after infestation
Text: Example B11: Activity Against Spodoptera littoralis (Egyptian Cotton Leaf Worm), Systemic Activity
as §2, with “mortality” for “mortality, anti-feedant effect and growth inhibition in comparison to untreated samples”

[10] = test system: Frankliniella occidentalis (Western Flower Thrips); test: Activity against Frankliniella occidentalis, sprayed sunflower leaf discs; details: application rate of 200 ppm; population of mixed ages on sunflower leaf discs; 7 days after infestation
Method: Example B4: Activity Against Frankliniella occidentalis (Western Flower Thrips)
as §1, with “in” for “in a”, “plates” for “plate”, “[…]” for “10′000 ppm”, “drying” for “drying,”, “a Frankliniella” for “an aphid”, “7” for “6”

[11] = test system: Aedes aegypti (Yellow Fever Mosquito); details: test rate of 5 ppm; L2 larvae in 96-well plates; incubation period of 2 days
Method: Example B14: Activity Against Aedes aegypti (Yellow Fever Mosquito)
10 to 15 Aedes larvae (L2) together with a nutrition mixture were placed in 96-well microtiter plates. Test compounds were pipetted into the wells. After an incubation period of 2 days insects were assessed for mortality and growth inhibition.

CCS(=O)(=O)c1cc(C(F)(F)F)cnc1-c1nc2cc(C(F)(F)F)n(COC)c(=O)c2n1C [Compound A11]
at least 80%: mortality [1] | mortality [2] | mortality [3] | mortality [4] | control (at least one of mortality, anti-feedant effect, growth inhibition) [5] | effect in at least one of the three categories (mortality, anti-feedancy, or growth inhibition) [6]

CCS(=O)(=O)c1cc(C(F)(F)F)cnc1-c1nc2cc(C(F)(F)F)n(CCCC#N)c(=O)c2n1C [Compound A14]
at least 80%: mortality [7] | mortality [1] | mortality [2] | mortality [3] | mortality [4] | effect in at least one of the two categories (mortality or growth inhibition) [8] | control (at least one of mortality, anti-feedant effect, growth inhibition) [5] | mortality [9]

CCS(=O)(=O)c1cc(-c2ccc(C(F)(F)F)cc2F)cnc1-c1nc2cc(C(F)(F)F)n(C)c(=O)c2n1C [Compound A51]
at least 80%: mortality [1] | mortality [2] | mortality [3] | effect in at least one of the two categories (mortality or growth inhibition) [8] | control (at least one of mortality, anti-feedant effect, growth inhibition) [5] | effect in at least one of the three categories (mortality, anti-feedancy, or growth inhibition) [6] | mortality [9]

CCS(=O)(=O)c1cc(-c2cc(F)ccc2F)cnc1-c1nc2cc(C(F)(F)F)n(C)c(=O)c2n1C [Compound A68]
at least 80%: mortality [1] | mortality [2] | mortality [10] | mortality [3] | effect in at least one of the two categories (mortality or growth inhibition) [8] | control (at least one of mortality, anti-feedant effect, growth inhibition) [5]

CCn1c(C(F)(F)F)cc2nc(-c3ncc(-c4cccc(C(F)(F)F)c4)cc3S(=O)(=O)CC)n(C)c2c1=O [Compound A36]
at least 80%: mortality [7] | mortality [1] | mortality [2] | mortality [3] | effect in at least one of the two categories (mortality or growth inhibition) [8] | control (at least one of mortality, anti-feedant effect, growth inhibition) [5] | mortality [9]

CCS(=O)(=O)c1cc(-c2ccc(C(F)(F)F)cn2)cnc1-c1nc2cc(C(F)(F)F)n(C)c(=O)c2n1C [Compound A43]
at least 80%: mortality [1] | mortality [2] | effect in at least one of the two categories (mortality or growth inhibition) [8] | control (at least one of mortality, anti-feedant effect, growth inhibition) [5] | effect in at least one of the three categories (mortality, anti-feedancy, or growth inhibition) [6] | mortality [9] | effect in at least one of the two categories (mortality or growth inhibition) [11]

CCn1c(C(F)(F)F)cc2nc(-c3ccc(C4CC4)cc3S(=O)(=O)CC)n(C)c2c1=O [Compound A40]
at least 80%: mortality [1] | mortality [2] | mortality [3] | effect in at least one of the two categories (mortality or growth inhibition) [8] | control (at least one of mortality, anti-feedant effect, growth inhibition) [5] | effect in at least one of the three categories (mortality, anti-feedancy, or growth inhibition) [6] | mortality [9]

CCS(=O)(=O)c1cc(-c2ncc(F)cc2F)cnc1-c1nc2cc(C(F)(F)F)n(C)c(=O)c2n1C [Compound A44]
at least 80%: mortality [1] | mortality [2] | mortality [3] | effect in at least one of the two categories (mortality or growth inhibition) [8] | control (at least one of mortality, anti-feedant effect, growth inhibition) [5] | effect in at least one of the three categories (mortality, anti-feedancy, or growth inhibition) [6] | mortality [9]

CCS(=O)(=O)c1cc(-c2cccc(C(F)(F)F)c2)cnc1-c1nc2cc(C(F)(F)F)n(C)c(=O)c2n1C [Compound A60]
at least 80%: mortality [1] | mortality [2] | mortality [3] | effect in at least one of the two categories (mortality or growth inhibition) [8] | control (at least one of mortality, anti-feedant effect, growth inhibition) [5] | effect in at least one of the three categories (mortality, anti-feedancy, or growth inhibition) [6] | mortality [9]

CCS(=O)(=O)c1cc(-c2cncnc2)cnc1-c1nc2cc(C(F)(F)F)n(C)c(=O)c2n1C [Compound A57]
at least 80%: mortality [1] | mortality [2] | mortality [4] | effect in at least one of the two categories (mortality or growth inhibition) [8] | control (at least one of mortality, anti-feedant effect, growth inhibition) [5] | effect in at least one of the three categories (mortality, anti-feedancy, or growth inhibition) [6] | mortality [9]

CCn1c(C(F)(F)F)cc2nc(-c3ncc(-n4ccc(C(F)(F)F)n4)cc3S(=O)(=O)CC)n(C)c2c1=O [Compound A33]
at least 80%: mortality [7] | mortality [1] | mortality [2] | effect in at least one of the two categories (mortality or growth inhibition) [8] | control (at least one of mortality, anti-feedant effect, growth inhibition) [5]

CC=Cc1cnc(-c2nc3cc(C(F)(F)F)n(C)c(=O)c3n2C)c(S(=O)(=O)CC)c1 [Compound A67]
at least 80%: mortality [1] | mortality [2] | mortality [10] | mortality [3] | effect in at least one of the two categories (mortality or growth inhibition) [8] | control (at least one of mortality, anti-feedant effect, growth inhibition) [5] | effect in at least one of the three categories (mortality, anti-feedancy, or growth inhibition) [6] | mortality [9]

CCS(=O)(=O)c1cccnc1-c1nc2cc(C(F)(F)F)n(C)c(=O)c2n1C [Compound A17]
at least 80%: mortality [2] | mortality [3] | mortality [4] | effect in at least one of the two categories (mortality or growth inhibition) [8] | control (at least one of mortality, anti-feedant effect, growth inhibition) [5] | mortality [9]

CCS(=O)(=O)c1cc(-c2ccc(OC(F)(F)F)cc2)cnc1-c1nc2cc(C(F)(F)F)n(C)c(=O)c2n1C [Compound A66]
at least 80%: mortality [1] | mortality [2] | mortality [3] | effect in at least one of the two categories (mortality or growth inhibition) [8] | control (at least one of mortality, anti-feedant effect, growth inhibition) [5] | effect in at least one of the three categories (mortality, anti-feedancy, or growth inhibition) [6] | mortality [9]
